From PMC7819943, “Rice protein-binding microarrays: a tool to detect cis-acting elements near promoter regions in rice”
Some of the results follow.

Sequences of proteins named here, by UniProt entry; tags and fusion partners are left off.
UniProt Q0JBA9, entry or part of it: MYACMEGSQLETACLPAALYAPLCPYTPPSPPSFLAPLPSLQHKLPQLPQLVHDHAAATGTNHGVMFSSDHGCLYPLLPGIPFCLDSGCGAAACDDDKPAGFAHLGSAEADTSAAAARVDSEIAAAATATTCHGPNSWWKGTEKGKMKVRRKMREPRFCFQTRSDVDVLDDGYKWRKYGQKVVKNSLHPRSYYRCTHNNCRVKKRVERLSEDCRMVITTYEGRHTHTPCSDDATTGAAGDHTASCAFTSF

The sequences below were run against OsWRKY34 (Oryza sativa, UniProt Q0JBA9 1-250) (assay: protein-binding microarray (RPBM); PBS, 2% BSA, 51.3 ng/ul salmon testes DNA, 50 uM zinc acetate, 200 nM TF, 25 C, 1 h; high values mean tight binding). Conditions: protein: recombinant; tags: N-terminal polyhistidine and DsRed monomer fusion (pET32a); label: CyDye5-dUTP incorporated in the synthesized complementary strand; 3' TTTTT single-stranded linker to array surface; dsDNA, one strand shown.
How it was run: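 Binding signal is reported as fluorescence intensity per feature (arbitrary units) from an Axon 4000B scanner. Incubation used 200 nM of each Ni–NTA-purified, N-terminally polyhistidine- and DsRed-fused transcription factor from E. coli BL21-CodonPlus on a double-stranded custom Agilent array for 1 h at 25 °C, with 50 µM zinc acetate in the buffer, followed by washing.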

Sequence | binding signal
TTGTTGGCTCAATATAGTTATCCTCCTTTGACCCAGTTAACGGAGTCACCTAGTGCAG | 9120 fluorescence intensity (a.u.)
TCCAACCTTGACTGTGAACCAAACACACCCTAAGCCTAAACGGAGTCACCTAGTGCAG | 8280 fluorescence intensity (a.u.)
ACTAGCATTAATTAGCCACTCCTTCATTAAACTATCTTATCGGAGTCACCTAGTGCAG | 9580 fluorescence intensity (a.u.)
TAGCGGTCGATAACCTCTCTCTCACCCGTACTACCCACCACGGAGTCACCTAGTGCAG | 8390 fluorescence intensity (a.u.)
ATATTGTACTACTAACCTCTTTTGCACACAATTTACCAAACGGAGTCACCTAGTGCAG | 9400 fluorescence intensity (a.u.)
TGCTCTTAGGCTAACATAAACCAATGTTTTCTTCTCGTTCCGGAGTCACCTAGTGCAG | 8210 fluorescence intensity (a.u.)
AGGGAGGAGGGGAATTCGTACTCAGTAGTTTCCGGGCTTTCGGAGTCACCTAGTGCAG | 8310 fluorescence intensity (a.u.)
GTCACGTTTTTGCGGTGTCTCCCAGCCAATTACACATTTTCGGAGTCACCTAGTGCAG | 10500 fluorescence intensity (a.u.)
GTCAGTTGCCATAAATTGGCCTCGCCGGCCCGAGGCTTTCCGGAGTCACCTAGTGCAG | 8400 fluorescence intensity (a.u.)
GGGCGGTTCTTCTTCTTCGTCTTCGTCTTGGCGCCGGTCGCGGAGTCACCTAGTGCAG | 17200 fluorescence intensity (a.u.)
CTCCTCGCCGCCGCCATCGCTGCCCCACCGCCTCCCCACCCGGAGTCACCTAGTGCAG | 8060 fluorescence intensity (a.u.)
TCTTCGTGCTGACTCTATCGCGCTCTCTCTCTCCCATCTTCGGAGTCACCTAGTGCAG | 12500 fluorescence intensity (a.u.)
ACACCATTGACACGTTTGCTTATTCAGATTGTGGTTCATGCGGAGTCACCTAGTGCAG | 10200 fluorescence intensity (a.u.)
GAGACCCTAATCCCGTGTTTCCGTTCTCCACCAGTAGAGACGGAGTCACCTAGTGCAG | 8740 fluorescence intensity (a.u.)
ACCACACCACATATCATCCCAGACTCCGCCACGGCCGCGCCGGAGTCACCTAGTGCAG | 8550 fluorescence intensity (a.u.)
GAAATCTCACCCGCTCTCTCTCTCTCGCGCGCGCGCCGCCCGGAGTCACCTAGTGCAG | 8630 fluorescence intensity (a.u.)
TCAGTAGTCAACCAAATGTAACTAGTCTCTTCTTACCGGACGGAGTCACCTAGTGCAG | 8070 fluorescence intensity (a.u.)
TTGTTACTACTTTGGGCAGTGTTTAGCTCCTTTAAACTTCCGGAGTCACCTAGTGCAG | 9200 fluorescence intensity (a.u.)
CCATTCCCACATCGATCGGTCACTGCACTCGCGCTCTCTTCGGAGTCACCTAGTGCAG | 16200 fluorescence intensity (a.u.)
AAACATATTCTTGAATCTTCGCTTGTGTTTCTACGATATCCGGAGTCACCTAGTGCAG | 9090 fluorescence intensity (a.u.)
TTCCTCTATACTGCACTGTCGCTCGTAGTCTACTCCACCCCGGAGTCACCTAGTGCAG | 8290 fluorescence intensity (a.u.)
GGGCTGCTTTCACCTTTTGCTTTCCAACCTCTTCTTGCCACGGAGTCACCTAGTGCAG | 13400 fluorescence intensity (a.u.)
CCCATCGACCTATCCCTACACGGTTGCACATGCCGATACACGGAGTCACCTAGTGCAG | 11900 fluorescence intensity (a.u.)
GAGGTGGTATTATTATCCTTAACATTTATTATGGGCCTTTCGGAGTCACCTAGTGCAG | 12800 fluorescence intensity (a.u.)
GCTTCCGAGCTCGATCTCTCCCAAGCTCAATTCCATTCTCCGGAGTCACCTAGTGCAG | 8470 fluorescence intensity (a.u.)
AACATTACTTTATACGTGACTTATGCTTTTTATTTTTTTTCGGAGTCACCTAGTGCAG | 11400 fluorescence intensity (a.u.)
TGTTTTTTTTCCTATTTATCTGTTTTTTTTATTCCTGCGACGGAGTCACCTAGTGCAG | 8120 fluorescence intensity (a.u.)

Sequence | binding signal
ATATTTGACCGTTTGTCTTTTTCAAAAACTTTTGTGAAATCGGAGTCACCTAGTGCAG | 9920 fluorescence intensity (a.u.)
TCATGTGGACCATCCATTCTTCTCCCCTTTTCTTCACATTCGGAGTCACCTAGTGCAG | 9230 fluorescence intensity (a.u.)
CCAATTTTCAAATTTATTCTCCGTTTTGCTCTCAAATTTGCGGAGTCACCTAGTGCAG | 8370 fluorescence intensity (a.u.)
CCCCGCCCGGCTCAGACCTCGCCATCGATCGACCTGCTCGCGGAGTCACCTAGTGCAG | 10100 fluorescence intensity (a.u.)
TACCACTCATGCTTTCTCTTAGCCTTCATATACTTGTCAACGGAGTCACCTAGTGCAG | 13000 fluorescence intensity (a.u.)
CTCATCATATTTGGACCTGCACTGGAGCTAAGCAGATCTCCGGAGTCACCTAGTGCAG | 9540 fluorescence intensity (a.u.)
ATAGGCGAATCCACACCGTCCATTCATCCATCTGAAGCAGCGGAGTCACCTAGTGCAG | 9870 fluorescence intensity (a.u.)
ACCTCTAACCGCCACTAGTTTTTTATACTCTTCTCTATAGCGGAGTCACCTAGTGCAG | 8470 fluorescence intensity (a.u.)
TGCTCAATTGCAGAATTGCTCATAATCTCTCTCTTTTTTTCGGAGTCACCTAGTGCAG | 9140 fluorescence intensity (a.u.)
CCCTTGTTTGGTTTCACATCGAATTCCCTCCAAGTCTCACCGGAGTCACCTAGTGCAG | 9580 fluorescence intensity (a.u.)
GTTCATTCAGTTTATGCCACTGCACTTCCTATGTCTCATCCGGAGTCACCTAGTGCAG | 12000 fluorescence intensity (a.u.)
ACCCTAGGTTTCCATGTCCAACGTTTGACCGTCCGTCTTACGGAGTCACCTAGTGCAG | 10400 fluorescence intensity (a.u.)
CACCTGTAAAACGCCACCTCTTCACCGCTGCCACCACACCCGGAGTCACCTAGTGCAG | 9310 fluorescence intensity (a.u.)
GTTTTTGCTGAAATCAACCTAACCGATATTTAGCGTTACCCGGAGTCACCTAGTGCAG | 8150 fluorescence intensity (a.u.)
GCGAGCCAAGTAGCAGCAAATCCTCGTCCACTCATCCAGTCGGAGTCACCTAGTGCAG | 8300 fluorescence intensity (a.u.)
GCCATCAACACGGCCCACCCAGAAACGGCCGCATCAATCCCGGAGTCACCTAGTGCAG | 10100 fluorescence intensity (a.u.)
CCTTTTTATTTTATTTTTTTTCTATTTTTTTTCCGCAGCCCGGAGTCACCTAGTGCAG | 9000 fluorescence intensity (a.u.)
TAACGACCGTCAACATCTATCGAATTGTCGTTTGTATACTCGGAGTCACCTAGTGCAG | 9510 fluorescence intensity (a.u.)
CCTCATCACCACCACCACGCCAACATCCATCGGCTCGCCGCGGAGTCACCTAGTGCAG | 8800 fluorescence intensity (a.u.)
CTTCCACGCACTCTCTCGATCGGGTCGCTGCCGCTGATTTCGGAGTCACCTAGTGCAG | 10000 fluorescence intensity (a.u.)
CTTTCCCTATCTTTCTCCTCATCATATGTGTCATGATGCACGGAGTCACCTAGTGCAG | 8610 fluorescence intensity (a.u.)
GAAAACTACACAGTACTACGCGTTTCTTGTTCACACTTGCCGGAGTCACCTAGTGCAG | 10100 fluorescence intensity (a.u.)
ATTGCAACTGTCGGTCAACTGCTCCATTGATCGATCTCTCCGGAGTCACCTAGTGCAG | 9630 fluorescence intensity (a.u.)
AGAACACCATACACGTCCGGCTTCTCATGCGTCCACCGCTCGGAGTCACCTAGTGCAG | 8920 fluorescence intensity (a.u.)
CCACTGTCCAGAGGTCACTGATGTTGGTCTAGGCCACCTTCGGAGTCACCTAGTGCAG | 8540 fluorescence intensity (a.u.)
GGAAGAGATGGGAATTTTGGTGGGATAGGAATGGGGAATTCGGAGTCACCTAGTGCAG | 8350 fluorescence intensity (a.u.)
CCGCCATCCCCACCACGGGATCCACCATCGCCGAGGCCCCCGGAGTCACCTAGTGCAG | 8080 fluorescence intensity (a.u.)

Shown with tabs: entries from further up
Sequence	binding signal
ACACCATTGACACGTTTGCTTATTCAGATTGTGGTTCATGCGGAGTCACCTAGTGCAG	10200 fluorescence intensity (a.u.)
GAAATCTCACCCGCTCTCTCTCTCTCGCGCGCGCGCCGCCCGGAGTCACCTAGTGCAG	8630 fluorescence intensity (a.u.)
GCTTCCGAGCTCGATCTCTCCCAAGCTCAATTCCATTCTCCGGAGTCACCTAGTGCAG	8470 fluorescence intensity (a.u.)
ATAGGCGAATCCACACCGTCCATTCATCCATCTGAAGCAGCGGAGTCACCTAGTGCAG	9870 fluorescence intensity (a.u.)
AGAACACCATACACGTCCGGCTTCTCATGCGTCCACCGCTCGGAGTCACCTAGTGCAG	8920 fluorescence intensity (a.u.)
